# The supplement of paper PMC8728848
# The other results are listed elsewhere or left out.
# B1: SRS2 (Toxoplasma gondii), O15695 (protein)
# chain: MATRASLARQKTGAACLAVLTASPSVVAAKPWKRWVGVSVILASAFAVGVSAGPPYRYEPEKFTCRPKKGILSQWVSLLYQVQHNITFACEEATPVPTTLISEEHGLMVCAENMTPEECEANPAPLSAFLPGATKEWVTGDSVLTGLKISVPESQYPANAKSFRVGCRHNTKTGNTCMLTIHVEPRDPAVERQEARCSYTENSTLPKIFVTKDSNTMTLACGPHGAPMPESYTENYCSTPDTCDEKPFTSVIPGYLSKWFFGDPKSPLGARVRIPPEQIPSSPQINYFGCTGPTEGEGPKYNCTVPVPLGGGDPSEGSRPGGGSGGGKRGGGQGGGGSLAGFDFRQGSARHSLPSRMALSASALLAMTALAY
# What was measured:
# Assay in all cases: glycan array binding signal (z-score within array); higher = stronger binding
# Conditions in all cases: glycan notation: IUPAC condensed, linker removed
# [1] = biological target: Neu5Ac(a2-3)Gal(b1-3)GlcNAc(b1-3)Gal(b1-3)GlcNAc
# Procedure, shortened: (§1)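 Arrays were curated from the Consortium for Functional Glycomics database, 3228 in total, and kept only where the protein sequence was available. Binding is expressed as a within-array Z-score. This score was averaged across arrays of the same protein sequence at different concentrations or buffers and across linkers, and negative values can be read as non-binding.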
# [2] = biological target: Neu5Ac(a2-3)Gal(b1-3)GlcNAc(b1-3)Gal(b1-4)GlcNAc
# Procedure, shortened: as §1
# [3] = biological target: Neu5Ac(a2-3)Gal(b1-3)GlcNAc(b1-3)GalNAc
# Procedure, shortened: as §1
# [4] = biological target: Neu5Ac(a2-3)Gal(b1-3)GlcNAc6S
# Procedure, shortened: as §1
# [5] = biological target: Neu5Ac(a2-3)Gal(b1-3)[Fuc(a1-4)]GlcNAc
# Procedure, shortened: as §1
# [6] = biological target: Neu5Ac(a2-3)Gal(b1-3)[Fuc(a1-4)]GlcNAc(b1-3)Gal(b1-3)[Fuc(a1-4)]GlcNAc
# Procedure, shortened: as §1
# [7] = biological target: Neu5Ac(a2-3)Gal(b1-3)[Fuc(a1-4)]GlcNAc(b1-3)Gal(b1-4)[Fuc(a1-3)]GlcNAc
# Procedure, shortened: as §1
# [8] = biological target: Neu5Ac(a2-3)Gal(b1-3)[Neu5Ac(a2-3)Gal(b1-4)]GlcNAc
# Procedure, shortened: as §1
# [9] = biological target: Neu5Ac(a2-3)Gal(b1-3)[Neu5Ac(a2-6)]GalNAc
# Procedure, shortened: as §1
# Neu5Ac(a2-3)Gal(b1-4)Glc = biological target: Neu5Ac(a2-3)Gal(b1-4)Glc
# Procedure, shortened: as §1
# [10] = biological target: Neu5Ac(a2-3)Gal(b1-4)GlcNAc
# Procedure, shortened: as §1
# [11] = biological target: Neu5Ac(a2-3)Gal(b1-4)GlcNAc(b1-2)Man(a1-3)[GlcNAc(b1-2)Man(b1-4)GlcNAc(b1-2)Man(a1-6)]Man(b1-4)GlcNAc(b1-4)GlcNAc
# Procedure, shortened: as §1
# [12] = biological target: Neu5Ac(a2-3)Gal(b1-4)GlcNAc(b1-2)Man(a1-3)[Neu5Ac(a2-6)Gal(b1-4)GlcNAc(b1-2)Man(a1-6)]Man(b1-4)GlcNAc(b1-4)GlcNAc
# Procedure, shortened: as §1
# [13] = biological target: Neu5Ac(a2-3)Gal(b1-4)GlcNAc(b1-3)Gal(b1-3)GlcNAc
# Procedure, shortened: as §1
# [14] = biological target: Neu5Ac(a2-3)Gal(b1-4)GlcNAc(b1-3)Gal(b1-4)GlcNAc
# Procedure, shortened: as §1
# [15] = biological target: Neu5Ac(a2-3)Gal(b1-4)GlcNAc(b1-3)Gal(b1-4)GlcNAc(b1-3)Gal(b1-4)GlcNAc
# Procedure, shortened: as §1
# [16] = biological target: Neu5Ac(a2-3)Gal(b1-4)GlcNAc(b1-3)Gal(b1-4)[Fuc(a1-3)]GlcNAc
# Procedure, shortened: as §1
# [17] = biological target: Neu5Ac(a2-3)Gal(b1-4)GlcNAc(b1-3)GalNAc
# Procedure, shortened: as §1
# [18] = biological target: Neu5Ac(a2-3)Gal(b1-4)GlcNAc(b1-6)[Gal(b1-3)]GalNAc
# Procedure, shortened: as §1
# [19] = biological target: Neu5Ac(a2-3)Gal(b1-4)GlcNAc(b1-6)[Neu5Ac(a2-3)Gal(b1-3)]GalNAc
# Procedure, shortened: as §1
# [20] = biological target: Neu5Ac(a2-3)Gal(b1-4)GlcNAc6S
# Procedure, shortened: as §1
# [21] = biological target: Neu5Ac(a2-3)Gal(b1-4)[Fuc(a1-3)]GlcNAc
# Procedure, shortened: as §1
# [22] = biological target: Neu5Ac(a2-3)Gal(b1-4)[Fuc(a1-3)]GlcNAc(b1-3)Gal
# Procedure, shortened: as §1
# [23] = biological target: Neu5Ac(a2-3)Gal(b1-4)[Fuc(a1-3)]GlcNAc(b1-3)Gal(b1-4)GlcNAc
# Procedure, shortened: as §1
# [24] = biological target: Neu5Ac(a2-3)Gal(b1-4)[Fuc(a1-3)]GlcNAc(b1-3)Gal(b1-4)[Fuc(a1-3)]GlcNAc(b1-3)Gal(b1-4)[Fuc(a1-3)]GlcNAc
# Procedure, shortened: as §1
# [25] = biological target: Neu5Ac(a2-3)Gal(b1-4)[Fuc(a1-3)]GlcNAc(b1-3)GalNAc
# Procedure, shortened: as §1
# [26] = biological target: Neu5Ac(a2-3)Gal(b1-4)[Fuc(a1-3)]GlcNAc(b1-6)[Gal(b1-3)]GalNAc
# Procedure, shortened: as §1
# [27] = biological target: Neu5Ac(a2-3)Gal(b1-4)[Fuc(a1-3)]GlcNAc(b1-6)[Neu5Ac(a2-3)Gal(b1-3)]GalNAc
# Procedure, shortened: as §1
# [28] = biological target: Neu5Ac(a2-3)Gal(b1-4)[Fuc(a1-3)]GlcNAc6S
# Procedure, shortened: as §1
# [29] = biological target: Neu5Ac(a2-3)Gal6S(b1-4)GlcNAc
# Procedure, shortened: as §1
# [30] = biological target: Neu5Ac(a2-3)Gal6S(b1-4)[Fuc(a1-3)]GlcNAc
# Procedure, shortened: as §1
# Neu5Ac(a2-3)GalNAc = biological target: Neu5Ac(a2-3)GalNAc
# Procedure, shortened: as §1
# [31] = biological target: Neu5Ac(a2-3)GalNAc(b1-4)GlcNAc
# Procedure, shortened: as §1
# [32] = biological target: Neu5Ac(a2-3)[GalNAc(b1-4)]Gal(b1-4)Glc
# Procedure, shortened: as §1
# [33] = biological target: Neu5Ac(a2-3)[GalNAc(b1-4)]Gal(b1-4)GlcNAc
# Procedure, shortened: as §1
# [34] = biological target: Neu5Ac(a2-3)[GalNAc(b1-4)]Gal(b1-4)GlcNAc(b1-3)GalNAc
# Procedure, shortened: as §1
# [35] = biological target: Neu5Ac(a2-3)[Neu5Ac(a2-6)]GalNAc
# Procedure, shortened: as §1
# Neu5Ac(a2-6)Gal = biological target: Neu5Ac(a2-6)Gal
# Procedure, shortened: as §1
# Neu5Ac(a2-6)Gal(b1-4)Glc = biological target: Neu5Ac(a2-6)Gal(b1-4)Glc
# Procedure, shortened: as §1
# [36] = biological target: Neu5Ac(a2-6)Gal(b1-4)GlcNAc
# Procedure, shortened: as §1
binder,measurement,setting,value
B1,glycan array binding signal (z-score),[1],0.425
same,glycan array binding signal (z-score),[2],-0.981
same,glycan array binding signal (z-score),[3],1.3
same,glycan array binding signal (z-score),[4],0.196
same,glycan array binding signal (z-score),[5],-0.942
same,glycan array binding signal (z-score),[6],0.672
same,glycan array binding signal (z-score),[7],-0.397
same,glycan array binding signal (z-score),[8],-0.114
same,glycan array binding signal (z-score),[9],0.2
same,glycan array binding signal (z-score),Neu5Ac(a2-3)Gal(b1-4)Glc,0.598
same,glycan array binding signal (z-score),[10],-0.77
same,glycan array binding signal (z-score),[11],-0.779
same,glycan array binding signal (z-score),[12],0.714
same,glycan array binding signal (z-score),[13],-0.277
same,glycan array binding signal (z-score),[14],0.883
same,glycan array binding signal (z-score),[15],-0.7
same,glycan array binding signal (z-score),[16],-0.567
same,glycan array binding signal (z-score),[17],0.218
same,glycan array binding signal (z-score),[18],-0.432
same,glycan array binding signal (z-score),[19],0.927
same,glycan array binding signal (z-score),[20],0.45
same,glycan array binding signal (z-score),[21],0.656
same,glycan array binding signal (z-score),[22],-0.177
same,glycan array binding signal (z-score),[23],0.995
same,glycan array binding signal (z-score),[24],-0.426
same,glycan array binding signal (z-score),[25],1.72
same,glycan array binding signal (z-score),[26],-0.677
same,glycan array binding signal (z-score),[27],-0.245
same,glycan array binding signal (z-score),[28],-0.329
same,glycan array binding signal (z-score),[29],1.17
same,glycan array binding signal (z-score),[30],-0.527
same,glycan array binding signal (z-score),Neu5Ac(a2-3)GalNAc,-0.302
same,glycan array binding signal (z-score),[31],-0.567
same,glycan array binding signal (z-score),[32],0.283
same,glycan array binding signal (z-score),[33],-0.142
same,glycan array binding signal (z-score),[34],-0.633
same,glycan array binding signal (z-score),[35],-0.779
same,glycan array binding signal (z-score),Neu5Ac(a2-6)Gal,-0.764
same,glycan array binding signal (z-score),Neu5Ac(a2-6)Gal(b1-4)Glc,-0.173
same,glycan array binding signal (z-score),[36],-0.008

# Two records picked at random from the list so far:
binder,measurement,setting,value
B1,glycan array binding signal (z-score),[18],-0.432
same,glycan array binding signal (z-score),[16],-0.567
